# Where a name gives a salt, the structure may show the parent alone. This is one part of the list. Single values are uncertain here, since repeats match poorly.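 Cells: ReNCell VM human fetal ventral-midbrain neural progenitors, differentiated mitogen-free. Blinded raters compared doublecortin-stained (early neurons) or tyrosine hydroxylase-stained (dopaminergic neurons) images with untreated wells, where 0 means no change. After repeats and both raters were averaged, compounds scoring 2 or above became hits for retesting.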
# How the values were obtained:
# ReNCell VM [1] = assay: neuronal differentiation score (DCX+ cell fraction vs untreated, manual image score) (score (-3 to 3)); higher = more neuronal differentiation; settings: 2 uM, 2 weeks
# ReNCell VM [2] = assay: dopaminergic neuron differentiation score (TH+ cell fraction vs untreated, manual image score) (score (0 to 3)); higher = more TH+ dopaminergic neuron differentiation; settings: 2 uM, 4 weeks, BDNF 10 ng/ml + GDNF 10 ng/ml
compound,measurement,setting,value
COc1cc(O)c2c(=O)cc(C)oc2c1CC=C(C)C,neuronal differentiation score,ReNCell VM [1]; library: Spectrum,inactive: 0
same,dopaminergic neuron differentiation score,ReNCell VM [2]; library: Spectrum,inactive: 0
"Nc1ccn([C@H]2CC[C@@H](CO)O2)c(=O)n1 [2',3'-dideoxycytidine]",neuronal differentiation score,ReNCell VM [1]; library: LOPAC,inactive: 0
same,dopaminergic neuron differentiation score,ReNCell VM [2]; library: LOPAC,inactive: 0
CCC[C@@H]1C[C@@H](C(=O)N[C@@H]([C@H]2O[C@H](SC)[C@H](O)[C@@H](O)[C@H]2O)[C@H](C)Cl)N(C)C1 [Clindamycin hydrochloride],neuronal differentiation score,ReNCell VM [1]; library: Prestwick,inactive: 0
same,dopaminergic neuron differentiation score,ReNCell VM [2]; library: Prestwick,inactive: 0
CC(C)(Oc1ccc(CCNC(=O)c2ccc(Cl)cc2)cc1)C(=O)O,neuronal differentiation score,ReNCell VM [1]; library: Spectrum,inactive: 0
same,dopaminergic neuron differentiation score,ReNCell VM [2]; library: Spectrum,inactive: 0
COC(=O)c1sccc1S(=O)(=O)Nc1ccc(Nc2ccccc2)cc1OC,neuronal differentiation score,ReNCell VM [1]; library: Tocriscreen,inactive: 0
same,dopaminergic neuron differentiation score,ReNCell VM [2]; library: Tocriscreen,inactive: 0
OCC(S)CS (stereo not drawn),neuronal differentiation score,ReNCell VM [1]; library: Spectrum,inactive: 0
same,dopaminergic neuron differentiation score,ReNCell VM [2]; library: Spectrum,inactive: 0
CCCCC/N=c1\ccn(Cc2ccccc2)c2ccccc12,neuronal differentiation score,ReNCell VM [1]; library: Tocriscreen,inactive: -1
same,dopaminergic neuron differentiation score,ReNCell VM [2]; library: Tocriscreen,inactive: 0
CC1=CC(=O)C2=C(C)CC[C@@H]3[C@H](OC(=O)[C@H]3C)[C@@H]12 [Leucomisine],neuronal differentiation score,ReNCell VM [1]; library: Phytochemical,inactive: 0
same,dopaminergic neuron differentiation score,ReNCell VM [2]; library: Phytochemical,inactive: 0
CN(C)CCCOc1nn(Cc2ccccc2)c2ccccc12 [Benzydamine hydrochloride],neuronal differentiation score,ReNCell VM [1]; library: Prestwick,inactive: 0
same,dopaminergic neuron differentiation score,ReNCell VM [2]; library: Prestwick,inactive: 0
COC(=O)[C@H]1[C@H]2C[C@H]3c4[nH]c5ccccc5c4CCN3C[C@@H]2CC[C@@H]1O [Corynanthine hydrochloride],neuronal differentiation score,ReNCell VM [1]; library: Phytochemical,inactive: 0
same,dopaminergic neuron differentiation score,ReNCell VM [2]; library: Phytochemical,inactive: 0
O=C(O)CCNC(=O)c1ccc(/N=N/c2ccc(O)c(C(=O)O)c2)cc1 [Balsalazide Sodium],neuronal differentiation score,ReNCell VM [1]; library: Prestwick,inactive: 0
same,dopaminergic neuron differentiation score,ReNCell VM [2]; library: Prestwick,inactive: 0
CCn1cc(C(=O)O)c(=O)c2ccc(C)nc21 [Nalidixic acid sodium],neuronal differentiation score,ReNCell VM [1]; library: LOPAC,inactive: 0
same,dopaminergic neuron differentiation score,ReNCell VM [2]; library: LOPAC,inactive: 0
NCCC[C@H](N)C(=O)O,neuronal differentiation score,ReNCell VM [1]; library: Spectrum,inactive: 0
same,dopaminergic neuron differentiation score,ReNCell VM [2]; library: Spectrum,inactive: 0
CCSc1ccc2c(c1)N(CCCN1CCN(C)CC1)c1ccccc1S2 [Thiethylperazine dimalate],neuronal differentiation score,ReNCell VM [1]; library: Prestwick,inactive: 0
same,dopaminergic neuron differentiation score,ReNCell VM [2]; library: Prestwick,inactive: 0
COc1ccc2[nH]c([S@@+]([O-])Cc3ncc(C)c(OC)c3C)nc2c1,neuronal differentiation score,ReNCell VM [1]; library: Spectrum,inactive: 1
same,dopaminergic neuron differentiation score,ReNCell VM [2]; library: Spectrum,inactive: 0
CC[n+]1c(/C=C/C=C2/N(C)c3ccccc3C2(C)C)sc2ccccc21,neuronal differentiation score,ReNCell VM [1]; library: LOPAC,inactive: 0
same,dopaminergic neuron differentiation score,ReNCell VM [2]; library: LOPAC,inactive: 0
COc1cccc2c1C(=O)c1c(O)c3c(c(O)c1C2=O)C[C@@](O)(C(C)=O)C[C@@H]3O[C@H]1C[C@H](N)[C@H](O)[C@H](C)O1,neuronal differentiation score,ReNCell VM [1]; library: Spectrum,inactive: 0
same,dopaminergic neuron differentiation score,ReNCell VM [2]; library: Spectrum,inactive: 0
CC(=O)Oc1cc(OC(C)=O)c2c(c1)O[C@H](c1ccc(OC(C)=O)c(OC(C)=O)c1)[C@@H](OC(C)=O)C2,neuronal differentiation score,ReNCell VM [1]; library: Spectrum,inactive: 0
same,dopaminergic neuron differentiation score,ReNCell VM [2]; library: Spectrum,inactive: 0
CNCCC(Oc1ccc(C(F)(F)F)cc1)c1ccccc1 (stereo not drawn),neuronal differentiation score,ReNCell VM [1]; library: Spectrum,inactive: 0
same,dopaminergic neuron differentiation score,ReNCell VM [2]; library: Spectrum,inactive: 0
O=C(O)C1=CC(=C(c2ccc(O)c(C(=O)O)c2)c2ccc(O)c(C(=O)O)c2)C=CC1=O,neuronal differentiation score,ReNCell VM [1]; library: Spectrum,inactive: 0
same,dopaminergic neuron differentiation score,ReNCell VM [2]; library: Spectrum,inactive: 0
O=C(/C=C/c1ccccc1)NC(NC(=S)Nc1cccc2cccnc12)C(Cl)(Cl)Cl (stereo not drawn) [Salubrinal],neuronal differentiation score,ReNCell VM [1]; library: Tocriscreen,inactive: 0
same,dopaminergic neuron differentiation score,ReNCell VM [2]; library: Tocriscreen,inactive: 0
CCC(C)(C)c1ccc(CC(C)CN2C[C@@H](C)O[C@@H](C)C2)cc1 (stereo partly drawn),neuronal differentiation score,ReNCell VM [1]; library: Spectrum,inactive: 0
same,dopaminergic neuron differentiation score,ReNCell VM [2]; library: Spectrum,inactive: 0
O=C(CCCN1CCN(c2ccccn2)CC1)c1ccc(F)cc1 [Azaperone],neuronal differentiation score,ReNCell VM [1]; library: Prestwick,inactive: 0
same,dopaminergic neuron differentiation score,ReNCell VM [2]; library: Prestwick,inactive: 0
O=C(O)C[C@H](O)C[C@H](O)/C=C/c1c(C2CC2)nc2ccccc2c1-c1ccc(F)cc1,neuronal differentiation score,ReNCell VM [1]; library: Spectrum,inactive: 1
same,dopaminergic neuron differentiation score,ReNCell VM [2]; library: Spectrum,inactive: 0
O=C(O)CCC(=O)Nc1ccc(S(=O)(=O)Nc2nccs2)cc1,neuronal differentiation score,ReNCell VM [1]; library: Spectrum,inactive: 0
same,dopaminergic neuron differentiation score,ReNCell VM [2]; library: Spectrum,inactive: 0
CCCC(C(=O)OCCN(CC)CC)(c1ccccc1)c1ccccc1,neuronal differentiation score,ReNCell VM [1]; library: Spectrum,inactive: 0
same,dopaminergic neuron differentiation score,ReNCell VM [2]; library: Spectrum,inactive: 0
"CC(O)C(O)[C@H]1CNc2nc(N)[nH]c(=O)c2N1 (stereo partly drawn) [(6R)-5,6,7,8-Tetrahydro-L-biopterin hydrochloride]",neuronal differentiation score,ReNCell VM [1]; library: LOPAC,inactive: 0
same,dopaminergic neuron differentiation score,ReNCell VM [2]; library: LOPAC,inactive: 1
C[N+](C)(C)CCOC(=O)CCC(=O)OCC[N+](C)(C)C [Succinylcholine chloride],neuronal differentiation score,ReNCell VM [1]; library: LOPAC,inactive: 1
same,dopaminergic neuron differentiation score,ReNCell VM [2]; library: LOPAC,inactive: 0
C=CC(C)(O)CCC1C(=C)CC(OC(C)=O)C2C(C)(C)CCCC12C (stereo not drawn),neuronal differentiation score,ReNCell VM [1]; library: Spectrum,inactive: 0
same,dopaminergic neuron differentiation score,ReNCell VM [2]; library: Spectrum,inactive: 0
CC(=O)OCC(=O)[C@@]1(O)CC[C@H]2[C@@H]3CCC4=CC(=O)C=C[C@]4(C)[C@H]3[C@@H](O)C[C@@]21C,neuronal differentiation score,ReNCell VM [1]; library: Spectrum,inactive: 0
same,dopaminergic neuron differentiation score,ReNCell VM [2]; library: Spectrum,inactive: 0
CC1(C)C(O[C@@H]2OC[C@@H](O)[C@H](O)[C@H]2O)CC[C@]23CC24CC[C@]2(C)[C@@H]([C@@]5(C)CC[C@@H](C(C)(C)O)O5)[C@H](O)C[C@@]2(C)C4C[C@@H](O[C@@H]2O[C@H](CO)[C@@H](O)[C@H](O)[C@H]2O)C13 (stereo partly drawn),neuronal differentiation score,ReNCell VM [1]; library: Spectrum,inactive: 0
same,dopaminergic neuron differentiation score,ReNCell VM [2]; library: Spectrum,inactive: 0
COc1ccc2c(c1)CC[C@@H]1[C@@H]2CC[C@]2(C)[C@@H](NCCCCCCN3C(=O)CCC3=O)CC[C@@H]12,neuronal differentiation score,ReNCell VM [1]; library: LOPAC,inactive: 0
same,dopaminergic neuron differentiation score,ReNCell VM [2]; library: LOPAC,inactive: 0
CCC(C(N)=O)c1ccccc1 (stereo not drawn),neuronal differentiation score,ReNCell VM [1]; library: Spectrum,inactive: 0
same,dopaminergic neuron differentiation score,ReNCell VM [2]; library: Spectrum,inactive: 0
CC(Oc1ccc(Oc2cnc3ccc(Cl)cc3n2)cc1)C(=O)O (stereo not drawn),neuronal differentiation score,ReNCell VM [1]; library: LOPAC,inactive: 0
same,dopaminergic neuron differentiation score,ReNCell VM [2]; library: LOPAC,inactive: 0

# Some of the entries so far, tab-delimited.
compound	measurement	setting	value
COc1cc(O)c2c(=O)cc(C)oc2c1CC=C(C)C	dopaminergic neuron differentiation score	ReNCell VM [2]; library: Spectrum	inactive: 0
COC(=O)c1sccc1S(=O)(=O)Nc1ccc(Nc2ccccc2)cc1OC	neuronal differentiation score	ReNCell VM [1]; library: Tocriscreen	inactive: 0
CCSc1ccc2c(c1)N(CCCN1CCN(C)CC1)c1ccccc1S2 [Thiethylperazine dimalate]	dopaminergic neuron differentiation score	ReNCell VM [2]; library: Prestwick	inactive: 0
COc1ccc2[nH]c([S@@+]([O-])Cc3ncc(C)c(OC)c3C)nc2c1	dopaminergic neuron differentiation score	ReNCell VM [2]; library: Spectrum	inactive: 0
CC(=O)OCC(=O)[C@@]1(O)CC[C@H]2[C@@H]3CCC4=CC(=O)C=C[C@]4(C)[C@H]3[C@@H](O)C[C@@]21C	dopaminergic neuron differentiation score	ReNCell VM [2]; library: Spectrum	inactive: 0
